Experimental findings from paper PMC6748091 are described below.

This assay addresses T1, the C-terminal of ITGB4 (ITGB4 1356–1756), HA-tagged (UniProt P16144).
T1 sequence: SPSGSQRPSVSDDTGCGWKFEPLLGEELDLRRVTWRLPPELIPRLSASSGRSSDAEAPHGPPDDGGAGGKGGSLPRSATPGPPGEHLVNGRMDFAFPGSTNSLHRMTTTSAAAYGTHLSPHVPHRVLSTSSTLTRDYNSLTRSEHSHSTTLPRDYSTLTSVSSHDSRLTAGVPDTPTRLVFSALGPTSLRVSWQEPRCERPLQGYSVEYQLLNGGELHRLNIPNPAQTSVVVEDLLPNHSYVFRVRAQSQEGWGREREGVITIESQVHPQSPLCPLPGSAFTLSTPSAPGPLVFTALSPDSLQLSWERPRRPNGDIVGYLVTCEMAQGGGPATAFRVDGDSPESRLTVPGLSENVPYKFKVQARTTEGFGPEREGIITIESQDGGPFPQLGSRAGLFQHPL
As to the kind of experiment: co-IP; 293T cells cotransfected with FLAG-TMEM268 and HA-tagged ITGB4 fragments for 24 h; IP with an anti-HA antibody; ITGB4 mutants and FLAG-TMEM268 detected by western blotting. A general note: A western blot detects proteins with antibodies after separation by electrophoresis.

Results are given in words; binding and its absence hold for the method and conditions named. Binding seen in cells or lysates may run through a third protein. Some results given as binding are weak or reduced against the parent protein; the word gives no strength. Tags and fused reporters may be left off the sequences shown.

“FLAG-TMEM268 (in 293T cells) (from UniProt Q5VZI3 1-342)”: the binding entry is on record as “binds”.
